The values that follow come from the supplement of paper PMC9135407.

This test concerns primary human hepatic stellate cells (donor 1). The test can be described thus: percent Bodipy-positive cells; higher = more lipid droplet accumulation. The note with it: 48 h. The protocol:
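Primary lipid accumulation screen in primary human hepatic stellate cell myofibroblasts (donor 1, passage 8) in 384-well plates. 100 nL of library compound was pin-transferred into 30 µL medium in duplicate, and cells were treated for 48 h. The 'Scaled' score combines distance from plate baseline, toxicity and reproducibility penalties, and is normalised to nortriptyline (positive) and DMSO (negative) controls on each plate. A hit is defined as scaled >0.85 or among the top 3 wells per plate.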

The mark [1] stands for this setting: library stock concentration: 10 mM.
[2] abbreviates: library stock concentration: 80 uM.
The mark [3] stands for this setting: library stock concentration: 400 uM.
Where [4] appears, read: library stock concentration: 2 mM.
Where [5] appears, read: library stock concentration: 3.33 mM.
The mark [6] stands for this setting: library stock concentration: 1 mM.

Values joined by “and” are separate entries in the source; they are usually repeats but may differ in a detail not shown here. Equal values may be shown once. Where a name gives a salt, the structure may show the parent alone. ± gives the standard deviation of the averaged measurements. The list shows a part of the results. Part of the spread comes from offsets between plates or batches.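 Culture-activated primary human stellate myofibroblasts, where regained lipid droplets signal inactivation. Value: share of Hoechst-counted cells above a per-plate Bodipy cutoff, in duplicate wells, with DMSO negative and nortriptyline positive controls on each plate. Hits: a control-normalized score above the plate's top-tenth-percentile nortriptyline wells, or one of a plate's three best wells. Final well concentrations are not given.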

Regarding `CN[C@@H]1[C@H](O[C@H]2[C@H](O[C@H]3[C@H](O)[C@@H](O)[C@H](N=C(N)N)[C@@H](O)[C@@H]3N=C(N)N)O[C@@H](C)[C@]2(O)C=O)O[C@@H](CO)[C@H](O)[C@H]1O` [Streptomycin sulfate], the “percent Bodipy-positive cells” value was 35.6 ± 15%. In addition, the “percent Bodipy-positive cells” value (library stock concentration: 2.9 mM) was 16 ± 0.61%. Also, the “percent Bodipy-positive cells” value under setting [1] was determined as 17.3 ± 2.9%.

On to `Cc1cccc(C(=O)O)c1O`, for which the “percent Bodipy-positive cells” value under setting [1] stood at 26.8 ± 7.7%.

`O=C(C=Cc1ccccc1)NC(NC(=S)Nc1ccc(Cl)cc1)C(Cl)(Cl)Cl` (stereo not given): the “percent Bodipy-positive cells” value runs as follows: under setting [2], 8.77 ± 5%; under setting [3], 9.19 ± 0.91%; under setting [4], 16.2 ± 3.7%; under setting [5], 61.1 ± 7.6%; under setting [1], 100% and 87.3%.

With `Oc1cccc(-c2nc(N3CCOCC3)c3sccc3n2)c1` [PI3-Kinase .alpha. Inhibitor 2], under setting [6], the “percent Bodipy-positive cells” value was found to be 18.7 ± 17%.

For `Nc1nc(Cl)nc2c1ncn2[C@H]1C[C@H](O)[C@@H](CO)O1` [Cladribine], the “percent Bodipy-positive cells” value is, setting by setting: under setting [5], 10.2 ± 2.7%; under setting [1], 23.7 ± 2.3%.

As to `Nc1nc(Cl)nc2c1ncn2[C@H]1C[C@H](O)[C@@H](CO)O1`, under setting [1], the “percent Bodipy-positive cells” value was 15 ± 2.1%.

With `Cc1cc(C=C2C(=O)C=CC2=O)cc(C)c1O`, under setting [1], the “percent Bodipy-positive cells” value is 87.8 ± 6.3%.

Regarding `N=C(N)NC(=N)Nc1ccccc1` [1-Phenylbiguanide hydrochloride], under setting [1], the “percent Bodipy-positive cells” value amounted to 9.41 ± 2.4%.

On to `NCCNC(=O)c1ccc(Cl)cn1` [Lazabemide hydrochloride], for which the “percent Bodipy-positive cells” value under setting [1] came to 8.16 ± 0.93%.

On to `CC(C)N1Cc2cc(S(C)(=O)=O)ccc2N(CCN2CC=C(c3c[nH]c4cc(F)ccc34)CC2)S1(=O)=O`, for which the “percent Bodipy-positive cells” value under setting [1] stood at 16.7 ± 1.7%.

Turning to `CCCCC/C=C\C/C=C\CC/C=C\CCCC(=O)OC` [Pinolenic Acid methyl ester], the “percent Bodipy-positive cells” value under setting [6] was determined as 7.66 ± 3.1%.

In the case of `CCC(=O)O[C@@H](O[P@](=O)(CCCCc1ccccc1)CC(=O)N1C[C@H](C2CCCCC2)C[C@H]1C(=O)O)C(C)C` [Fosinopril], the “percent Bodipy-positive cells” value (library stock concentration: 3.5 mM) was found to be 7.37 ± 3.3%.

On to `COc1cccc2c1C(=O)c1c(O)c3c(c(O)c1C2=O)C[C@@](O)(C(=O)CO)C[C@@H]3O[C@H]1C[C@H](N)[C@H](O)[C@H](C)O1` [Doxorubicin], for which the “percent Bodipy-positive cells” value (library stock concentration: 8.6 mM) is 100%.

With `COc1cccc2c1C(=O)c1c(O)c3c(c(O)c1C2=O)C[C@@](O)(C(=O)CO)C[C@@H]3O[C@H]1C[C@H](N)[C@H](O)[C@H](C)O1`, under setting [1], the “percent Bodipy-positive cells” value was 87.5 ± 18%.

In the case of `COc1cccc2c1C(=O)c1c(O)c3c(c(O)c1C2=O)C[C@@](O)(C(=O)CO)C[C@@H]3O[C@H]1C[C@H](N)[C@H](O)[C@H](C)O1` [Doxorubicin hydrochloride], the “percent Bodipy-positive cells” value was 100%. Further, the “percent Bodipy-positive cells” value under setting [1] came out at 50 ± 71%.

Take `COc1cccc2c1C(=O)c1c(O)c3c(c(O)c1C2=O)C[C@@](O)(C(=O)CO)C[C@@H]3O[C@H]1C[C@H](N)[C@H](O)[C@H](C)O1` [Doxorubicin (Adriamycin)]: the “percent Bodipy-positive cells” value was 100% under setting [5] and 50 ± 71% under setting [1].

In the case of `Cn1cnc2c(NCc3ccccc3)nc(NCCO)nc21` [Olomoucine], the “percent Bodipy-positive cells” value by setting is: under setting [6], 12.9 ± 0.96%; (library stock concentration: 16.8 mM) 25.15 ± 0.22%.

As to `Cc1cc(C(=O)NOCCO)c(Nc2ccc(I)cc2F)n(C)c1=O`, the “percent Bodipy-positive cells” value reads like this: under setting [2], 11.9 ± 1.5%; under setting [3], 11 ± 1.9%; under setting [4], 8.15 ± 1.8%; under setting [5], 5.6 ± 2.7%; under setting [1], 9.69% and 11.4%.

For the molecule `O=C(OCc1ccccc1)[C@H](O)c1ccccc1` [(R)-benzyl Mandelate], the “percent Bodipy-positive cells” value under setting [6] came to 11.6 ± 8.2%.

In the case of `CC1(C)S[C@@H]2[C@H](NC(=O)[C@H](N)c3ccc(O)cc3)C(=O)N2[C@H]1C(=O)O` [Amoxicillin Sodium], the “percent Bodipy-positive cells” value under setting [5] worked out at 6.78 ± 3.5% and the “percent Bodipy-positive cells” value under setting [1] is 12.7 ± 0.43%.

For `CC1(C)S[C@@H]2[C@H](NC(=O)[C@H](N)c3ccc(O)cc3)C(=O)N2[C@H]1C(=O)O`, under setting [1], the “percent Bodipy-positive cells” value amounted to 16.1 ± 3.5%.

With `CC1(C)S[C@@H]2[C@H](NC(=O)[C@H](N)c3ccc(O)cc3)C(=O)N2[C@H]1C(=O)O` [Amoxicillin], the “percent Bodipy-positive cells” value was found to be 24.3 ± 1.1%. Moreover, the “percent Bodipy-positive cells” value under setting [5] was 7.9 ± 1.8%. Besides, the “percent Bodipy-positive cells” value under setting [1] is 23.5% and 10.7%.

On to `O=C(O)/C=C/CCCCCCCCC(=O)O` [Traumatic Acid], for which the “percent Bodipy-positive cells” value under setting [6] is 11.2 ± 3.7%.

Take `OCCOCCN1CCN(C2=Nc3ccccc3Sc3ccccc32)CC1` [Quetiapine]: the “percent Bodipy-positive cells” value (library stock concentration: 5.2 mM) stood at 26.6 ± 9.7%.

Turning to `OCCOCCN1CCN(C2=Nc3ccccc3Sc3ccccc32)CC1` [Quetiapine Fumarate], the “percent Bodipy-positive cells” value under setting [5] worked out at 15.8 ± 3.1%.

For `OCCOCCN1CCN(C2=Nc3ccccc3Sc3ccccc32)CC1` [Quetiapine fumarate], for the setting “library stock concentration: 2.3 mM”, the “percent Bodipy-positive cells” value came out at 26.7 ± 3.6%.

Turning to `OCCOCCN1CCN(C2=Nc3ccccc3Sc3ccccc32)CC1`, the “percent Bodipy-positive cells” value under setting [1] came out at 35.73 ± 0.3%.

As for `COC(=O)C1=C(C)NC(C)=C(C(=O)NCCCN2CCC(c3ccccc3)(c3ccccc3)CC2)C1c1ccc([N+](=O)[O-])cc1` (stereo not given), under setting [1], the “percent Bodipy-positive cells” value amounted to 100%.

Regarding `Cc1ccc(C(=O)Nc2cccc(C(F)(F)F)c2)cc1Nc1nc(-c2cccnc2)nc2c1cnn2C`, the “percent Bodipy-positive cells” value runs as follows: under setting [5], 73.5 ± 6%; under setting [1], 99.19 ± 0.4%.

As for `CCCCC[C@@](C)(O)/C=C/[C@H]1[C@H](O)CC(=O)[C@@H]1C/C=C\CCCC(=O)O` [15(R)-15-methyl Prostaglandin E2], the “percent Bodipy-positive cells” value under setting [6] turned out to be 11.9 ± 3.6%.

As to `CCCCC/C=C\C/C=C\CCCCCCCC(=O)OCC` [Linoleic Acid ethyl ester], the “percent Bodipy-positive cells” value under setting [6] is 31.2 ± 23%.

For `Oc1ccc(OC2CCCCO2)cc1` (stereo not given) [Deoxyarbutin], the “percent Bodipy-positive cells” value came to 17.3 ± 17% under setting [5] and 41.2 ± 17% under setting [1].

With `C=C1C[C@@]23CC[C@H]4[C@@](C)(CCC[C@@]4(C)C(=O)O)[C@@H]2CC[C@]1(O)C3` [Steviol], the “percent Bodipy-positive cells” value under setting [1] stood at 19.7 ± 7.5%.

In the case of `Nc1cccc2c1C(=O)N(C1CCC(=O)NC1=O)C2=O` (stereo not given) [Pomalidomide], the “percent Bodipy-positive cells” value runs as follows: under setting [5], 7.73 ± 1.5%; under setting [1], 11.1 ± 4.3%.

Consider `COc1cc(OC)cc(OC)c1` [1,3,5-trimethoxybenzene], for which the “percent Bodipy-positive cells” value under setting [1] turned out to be 35.2 ± 13%.

Turning to `COc1cc(O)c(C(=O)c2ccccc2)cc1S(=O)(=O)O`, the “percent Bodipy-positive cells” value under setting [1] worked out at 46.7 ± 16%.

In the case of `COc1cc(Nc2ncc(F)c(Nc3ccc4c(n3)N(COP(=O)(O)O)C(=O)C(C)(C)O4)n2)cc(OC)c1OC` [Fostamatinib (R788)], the “percent Bodipy-positive cells” value under setting [1] came out at 88.8 ± 1.3%.

For `O=c1cnn([C@@H]2O[C@H](CO)[C@@H](O)[C@H]2O)c(=O)[nH]1`, the “percent Bodipy-positive cells” value under setting [1] came out at 18.4 ± 9.8%.

Take `N=C(N)NC(=O)Cc1c(Cl)cccc1Cl` [Guanfacine hydrochloride]: the “percent Bodipy-positive cells” value was found to be 37.8 ± 18%.

With `N=C(N)NC(=O)Cc1c(Cl)cccc1Cl` [Guanfacine HCl], under “library stock concentration: 7.1 mM”, the “percent Bodipy-positive cells” value was determined as 14.3 ± 7.2%.

Turning to `CC/C=C\C/C=C\C/C=C\CCCCCCCC(=O)N[C@@H](Cc1ccc(O)cc1)C(=O)O` [N-(.alpha.-Linolenoyl) Tyrosine], the “percent Bodipy-positive cells” value under setting [6] turned out to be 14.5 ± 9.6%.

For `Cc1ccc(CC2(O)CCN(CCOc3ccc(O)cc3)CC2)cc1`, under setting [1], the “percent Bodipy-positive cells” value turned out to be 38.3 ± 8.6%.

As to `Cc1ccc(NC(=O)Nc2cc(C(F)(F)F)ccc2F)cc1Nc1ccc2c(c1)NC(=O)C2=Cc1ccc[nH]1`, the “percent Bodipy-positive cells” value reads like this: under setting [4], 74 ± 3.5%; under setting [1], 99.12 ± 0.39%.

With `CCCCCCCCCC(=O)N[C@@H](Cc1c[nH]c2ccccc12)C(=O)N[C@@H](CC(N)=O)C(=O)N[C@@H](CC(=O)O)C(=O)N[C@@H]1C(=O)NCC(=O)N[C@@H](CCCN)C(=O)N[C@@H](CC(=O)O)C(=O)N[C@H](C)C(=O)N[C@@H](CC(=O)O)C(=O)NCC(=O)N[C@H](CO)C(=O)N[C@@H]([C@H](C)CC(=O)O)C(=O)N[C@@H](CC(=O)c2ccccc2N)C(=O)O[C@@H]1C` [DAPTOMYCIN (5 millimolar/DMSO)], the “percent Bodipy-positive cells” value under setting [1] is 26.8 ± 5.1%.
